Assay results from article PMC3834827, “Crystal structure of the DdrB/ssDNA complex from Deinococcus radiodurans reveals a DNA binding surface involving higher-order oligomeric states” (Nucleic Acids Research, 2013).
Positions count from the first letter of the chain named. The comparison behind a weaker result is the experiment's own reference, which may not be listed here. Protein sequences can lack the tags named with them. For part of these data: The exact form of at least one protein or probe is not confirmed. For part of these data: At least one verdict rests on a figure or table, not on a statement of the authors.

Columns and labels:
Experiment in all cases: fluorescence anisotropy
Conditions in all cases: 3 uM pentamer, range for all nine mutants; FP: 20 mM Tris pH 8.0, 100 mM KCl, 200 nM DNA; recombinant protein; residues 1-144; protein details: N-terminal 6His; label: 5' 6-FAM; single-stranded DNA
[1] = target: T1, DdrB W66A (Deinococcus radiodurans) (UniProt Q9RY80)
T1 sequence (looked up): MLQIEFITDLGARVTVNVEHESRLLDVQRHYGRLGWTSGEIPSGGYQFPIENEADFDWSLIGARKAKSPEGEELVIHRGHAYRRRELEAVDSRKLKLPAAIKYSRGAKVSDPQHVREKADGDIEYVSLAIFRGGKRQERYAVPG

[2] = target: T2, DdrB R85A (Deinococcus radiodurans) (UniProt Q9RY80)
T2 sequence (looked up): T1 sequence (looked up) with A66W, R85A

[3] = target: T3, DdrB R64A (Deinococcus radiodurans) (UniProt Q9RY80)
T3 sequence (looked up): T1 sequence (looked up) with R64A, A66W

[4] = target: T4, DdrB K94A (Deinococcus radiodurans) (UniProt Q9RY80)
T4 sequence (looked up): T1 sequence (looked up) with A66W, K94A

[5] = target: T5, DdrB R83A (Deinococcus radiodurans) (UniProt Q9RY80)
T5 sequence (looked up): T1 sequence (looked up) with A66W, R83A

[6] = target: T6, DdrB K102A (Deinococcus radiodurans) (UniProt Q9RY80)
T6 sequence (looked up): T1 sequence (looked up) with A66W, K102A

[7] = target: T7, DdrB R132A (Deinococcus radiodurans) (UniProt Q9RY80)
T7 sequence (looked up): T1 sequence (looked up) with A66W, R132A

[8] = target: T8, DdrB K135A (Deinococcus radiodurans) (UniProt Q9RY80)
T8 sequence (looked up): T1 sequence (looked up) with A66W, K135A

[9] = target: T9, DdrB K108A (Deinococcus radiodurans) (UniProt Q9RY80)
T9 sequence (looked up): T1 sequence (looked up) with A66W, K108A

Measured: binding result

TTTTTTTTTTTTTTTTTTTT [20b poly dT]
binds more weakly: all assays above
